The record followed here is patent publication US9850219B1, “Phenothiazine derivatives and methods of use thereof” (Acenda Pharma, Inc., priority 2016, dated 2017).

Format in all cases: cell-based
One test has as its system A549. The test is described as follows: Cytotoxicity, sulforhodamine B (SRB) assay, A549. As to conditions: Homo sapiens, A549, 48 h, NA indicates no activity. An excerpt: (§1) Human non-small cell lung cancer (NSCLC) cell lines (e.g., A549, H441GL and H1299), colon cancer cell lines (e.g., HCT116 and DLD1), breast cancer cell lines (e.g., MCF7 and MDA-MB-231), and pancreatic cancer cell lines (e.g., PANC-1 and SUIT-2) were used in cytotoxicity studies. These NSCLC cell lines have intrinsic resistance to epidermal growth factor receptor (EGFR) inhibitors, e.g., gefitinib. A549 and H441GL are EGFR-wild type adenocarcinoma cell lines. H1299 is an EGFR-wild type large cell carcinoma cell line. HCT116 and DLD1 are metastatic colon cell lines. MCF7 is a hormone-responsive breast cancer cell line. MDA-MB-231 is a triple-negative breast cancer cell line. PANC-1 is a metastatic adenocarcinoma cell line. SUIT-2 is a pancreatic ductal adenocarcinoma cell line. […]
(§2) Cell viability was assessed using the sulforhodamine B (SRB) assay. […] After air-drying, 100 μL of 10 mM Tris base was added to each well and the absorbance was read at 530 nm. Cytotoxicity is expressed as the percent of cells in drug treated wells relative to number of cells in the solvent only control (set to 100%). Each experiment was performed independently in triplicate and cytotoxicity IC50 value of each test compound was calculated from cytotoxicity data obtained at various concentrations.

The subject of the next test is H441GL. The test is described as follows: Cytotoxicity, sulforhodamine B (SRB) assay, H441GL. As to conditions: Homo sapiens, 48 h, NA indicates no activity.
Source text: as §1, §2
On the technique in general: In SRB staining, fixed cells bind dye roughly in proportion to their protein.

In a further test the test system is H1299. As to the kind of experiment: Cytotoxicity, sulforhodamine B (SRB) assay, H1299. As to conditions: Homo sapiens, NCI-H1299, H1299, 48 h.
Source text: as §1, §2

For orientation: IC50 means the concentration that gives 50% inhibition. On to `CN1CCN(CCCN2c3ccccc3Sc3ccc(Cl)cc32)CC1` [PCP, prochlorperazine, reference compound], for which the results for the IC50 in the test with A549, in the test with H441GL and in the test with H1299 were 14.6 µM, 12.9 µM and 28.7 µM, respectively.
